{"sequences": {"note": "Sequences of proteins named here, by UniProt entry; tags and fusion partners are left off. A change or cut given only in a name is not applied to a line headed by its entry.", "UniProt P67809": "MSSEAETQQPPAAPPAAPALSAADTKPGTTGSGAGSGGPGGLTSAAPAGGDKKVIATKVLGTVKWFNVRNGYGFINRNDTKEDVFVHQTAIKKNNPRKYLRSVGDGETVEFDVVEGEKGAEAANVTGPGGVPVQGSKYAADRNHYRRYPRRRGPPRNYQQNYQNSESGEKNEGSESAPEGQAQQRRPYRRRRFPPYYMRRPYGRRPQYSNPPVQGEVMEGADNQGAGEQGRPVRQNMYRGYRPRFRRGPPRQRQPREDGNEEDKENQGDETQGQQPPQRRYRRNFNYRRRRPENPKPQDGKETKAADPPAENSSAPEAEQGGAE"}, "source": "paper PMC11267267", "about": "“Metabolic Recoding of NSUN2‐Mediated m^5C Modification Promotes the Progression of Colorectal Cancer via the NSUN2/YBX1/m^5C‐ENO1 Positive Feedback Loop” (Advanced Science, 2024)", "target": "YBX1 (CRC cell lysate pull-down) (UniProt P67809)", "assay": "pull-down, MS and western blot", "details": "m5C at C26; protein in an extract; label: 3' biotin", "note": "The exact form of at least one protein or probe is not confirmed. Results from cells or extracts need not show a direct contact.", "data": [{"sequence": "GAUCUCGCCGGCUUUACGUUCACCUCGGUGUCUGCAGCACCCUCCGCUUC [ENO1 [m5C] pull-down probe]", "values": [{"measurement": "binding result", "value": "binds"}]}]}
